PubChem BioAssay AID1259308, NCATS | 2017
Shown is a random part of about 59,000 reagents tested. About 1,510 of all reagents (2.6%) count as active. 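Calls use total luciferase alone and ignore viability, so some active siRNAs may act by altering cell number.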 A number with no mark means an inactive call. Reagents against one gene are numbered here.

- Test: 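Candidate targets for better recombinant protein yield in mammalian cells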 (primary screen)
- Cell system: human HEK293 embryonic kidney cells stably expressing firefly luciferase (HEK-CMV-Luc2-Hygro)
- Reagent: single siRNA against human genes, 0.8 pmol siRNA per well
- Duration: 72 h
- Measurement: 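Reporter luminescence and viable-cell signal on separate replicate plates, given as percent of non-targeting control and median/MAD z-scores, plus per-cell luciferase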
- Direction: total luciferase, z-score and total luciferase, % of control: higher = more reporter protein produced; luciferase per cell, z-score: higher = more reporter output per viable cell; viable cells, % of control: higher = more viable cells
- Call rule: 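Active when the median/MAD z-score for overall luciferase is greater than 3; a gene was taken forward for validation with new siRNAs if at least two of its three siRNAs passed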
- Meaning of the calls: active = raised luciferase; inactive = no rise

no.	gene	reagent	total luciferase, z-score	total luciferase, % of control	luciferase per cell, z-score	viable cells, % of control
1	RBM23 (RNA binding motif protein 23)	1	-1.82	45.8	-1.89	84.2
2	RBM23 (RNA binding motif protein 23)	2	0.172	85.3	0.22	90
3	RBM23 (RNA binding motif protein 23)	3	2.42	130	2.48	75.6
4	MTIF2 (mitochondrial translational initiation factor 2)	1	0.59	93.6	-0.00766	105
5	MTIF2 (mitochondrial translational initiation factor 2)	2	-0.419	73.6	-0.973	106
6	MTIF2 (mitochondrial translational initiation factor 2)	3	2.08	123	1.63	89.7
7	RAG2 (recombination activating 2)	1	-1.38	54.5	-0.841	76
8	RAG2 (recombination activating 2)	2	-0.328	75.4	0.171	80.5
9	RAG2 (recombination activating 2)	3	-0.137	79.2	-0.516	101
10	EHF (ETS homologous factor)	1	-0.364	74.6	-0.868	105
11	EHF (ETS homologous factor)	2	-0.885	64.3	-0.917	91.5
12	EHF (ETS homologous factor)	3	-1.36	54.7	-1.92	101
13	DAB1 (DAB adaptor protein 1)	1	-2.77	26.8	-4.49	97.7
14	DAB1 (DAB adaptor protein 1)	2	1.53	112	1.02	96
15	DAB1 (DAB adaptor protein 1)	3	0.883	99.5	-0.323	121
16	FRMPD1 (FERM and PDZ domain containing 1)	1	-0.349	75	1.81	52.1
17	FRMPD1 (FERM and PDZ domain containing 1)	2	1.05	103	1.13	85.4
18	FRMPD1 (FERM and PDZ domain containing 1)	3	1.23	106	0.789	96.6
19	VWA7 (von Willebrand factor A domain containing 7)	1	0.912	100	1.01	85.6
20	VWA7 (von Willebrand factor A domain containing 7)	2	-0.362	74.7	-0.597	97.7
21	VWA7 (von Willebrand factor A domain containing 7)	3	2	122	1.75	85.6
22	CD79B (CD79b molecule)	1	-1.19	58.2	-0.445	73.1
23	CD79B (CD79b molecule)	2	-2	42.1	-2.28	85.8
24	CD79B (CD79b molecule)	3	-0.402	73.9	0.151	79.3
25	USP25 (ubiquitin specific peptidase 25)	1	1.06	103	0.469	102
26	USP25 (ubiquitin specific peptidase 25)	2	-1.38	54.4	-1.75	96.5
27	USP25 (ubiquitin specific peptidase 25)	3	2.05	123	1.92	82.7
28	ZNF273 (zinc finger protein 273)	1	1.77	117	3.15	57.2
29	ZNF273 (zinc finger protein 273)	2	2.88	139	2.72	76
30	ZNF273 (zinc finger protein 273)	3	-0.137	79.2	-0.528	102

Copied from the list:
ZNF273 (zinc finger protein 273) #3, viable cells, % of control = 102
EHF (ETS homologous factor) #3, luciferase per cell, z-score = -1.92
Result for DAB1 (DAB adaptor protein 1) #3 under “viable cells, % of control”: 121
FRMPD1 (FERM and PDZ domain containing 1) #3, viable cells, % of control = 96.6
Result of USP25 (ubiquitin specific peptidase 25) #2 under “total luciferase, % of control”: 54.4
EHF (ETS homologous factor) #2, viable cells, % of control: 91.5

Further records follow.
no.	gene	reagent	total luciferase, z-score	total luciferase, % of control	luciferase per cell, z-score	viable cells, % of control
31	CGGBP1 (CGG triplet repeat binding protein 1)	1	0.117	84.2	1.02	72
32	CGGBP1 (CGG triplet repeat binding protein 1)	2	-2.08	40.5	-1.63	69.6
33	CGGBP1 (CGG triplet repeat binding protein 1)	3	-1.23	57.4	-0.879	80.9
34	RNF175 (ring finger protein 175)	1	-0.401	73.9	0.122	80
35	RNF175 (ring finger protein 175)	2	-1.78	46.4	-1.27	72.3
36	RNF175 (ring finger protein 175)	3	0.311	88.1	0.269	91.7
37	HBG1 (hemoglobin subunit gamma 1)	1	0.717	96.1	0.405	96.6
38	HBG1 (hemoglobin subunit gamma 1)	2	-0.736	67.2	-1.19	103
39	HBG1 (hemoglobin subunit gamma 1)	3	-2.4	34.1	-0.497	43.4
40	SPDYE2B (speedy/RINGO cell cycle regulator family member E2B)	1	-0.144	79	-0.809	109
41	SPDYE2B (speedy/RINGO cell cycle regulator family member E2B)	2	0.815	98.1	0.424	98
42	SPDYE2B (speedy/RINGO cell cycle regulator family member E2B)	3	0.214	86.1	-0.293	104
43	S100A4 (S100 calcium binding protein A4)	1	1.96	121	1.76	85
44	S100A4 (S100 calcium binding protein A4)	2	0.153	84.9	0.388	85.7
45	S100A4 (S100 calcium binding protein A4)	3	-1.73	47.5	-1.46	78
46	PTN (pleiotrophin)	1	-0.79	66.2	-0.588	86.3
47	PTN (pleiotrophin)	2	-0.239	77.1	-0.703	104
48	PTN (pleiotrophin)	3	1.32	108	1.2	88
49	RHOU (ras homolog family member U)	1	-2.01	41.8	-2.04	79.9
50	RHOU (ras homolog family member U)	2	0.395	89.8	0.648	84.6
51	RHOU (ras homolog family member U)	3	0.654	94.9	1.2	77.2
52	B4GALNT1 (beta-1,4-N-acetyl-galactosaminyltransferase 1)	1	0.426	90.4	0.407	90.7
53	B4GALNT1 (beta-1,4-N-acetyl-galactosaminyltransferase 1)	2	-0.943	63.1	-1.24	97.9
54	B4GALNT1 (beta-1,4-N-acetyl-galactosaminyltransferase 1)	3	0.829	98.4	0.948	85.6
55	NIM1K (NIM1 serine/threonine protein kinase)	1	2.62	134	1.58	98.7
56	NIM1K (NIM1 serine/threonine protein kinase)	2	0.842	98.6	0.211	104
57	NIM1K (NIM1 serine/threonine protein kinase)	3	2.91	140	1.14	116
58	PPHLN1 (periphilin 1)	1	0.779	97.4	1.61	71.3
59	PPHLN1 (periphilin 1)	2	0.128	84.4	0.0118	94.1
60	PPHLN1 (periphilin 1)	3	1.25	107	0.736	98.3
61	CPSF1 (cleavage and polyadenylation specific factor 1)	1	-1.82	45.7	-0.92	65.1
62	CPSF1 (cleavage and polyadenylation specific factor 1)	2	-0.327	75.4	-0.634	99.5
63	CPSF1 (cleavage and polyadenylation specific factor 1)	3	-0.664	68.7	1.8	47.8
64	ESYT2 (extended synaptotagmin 2)	1	-0.271	76.5	-0.758	104
65	ESYT2 (extended synaptotagmin 2)	2	0.218	86.2	-0.103	99
66	ESYT2 (extended synaptotagmin 2)	3	0.883	99.4	1.27	79.5
67	FGD5 (FYVE, RhoGEF and PH domain containing 5)	1	-1.1	60	-0.682	80.2
68	FGD5 (FYVE, RhoGEF and PH domain containing 5)	2	-0.242	77.1	0.405	77.4
69	FGD5 (FYVE, RhoGEF and PH domain containing 5)	3	0.97	101	1.36	79
70	PBK (PDZ binding kinase)	1	-1.36	54.8	-1.76	97.3
71	PBK (PDZ binding kinase)	2	-0.305	75.8	-0.595	99.1
72	PBK (PDZ binding kinase)	3	-0.438	73.2	-0.334	89.3
73	SLC35D4	1	1.93	120	2.01	79.2
74	SLC35D4	2	0.279	87.4	0.56	84.3
75	SLC35D4	3	-1.04	61.2	-0.355	75.1
